Results as given in publication PMC9403361.

Sequences of proteins named here, by UniProt entry; tags and fusion partners are left off. A change or cut given only in a name is not applied to a line headed by its entry. Residues count along the entry.
UniProt Q15075, residues 1-209: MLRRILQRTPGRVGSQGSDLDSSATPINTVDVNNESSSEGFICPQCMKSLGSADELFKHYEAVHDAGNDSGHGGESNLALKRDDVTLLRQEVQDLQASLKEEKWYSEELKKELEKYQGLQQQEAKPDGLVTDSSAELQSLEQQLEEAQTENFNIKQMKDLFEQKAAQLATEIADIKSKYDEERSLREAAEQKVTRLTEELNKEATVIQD
UniProt Q13636: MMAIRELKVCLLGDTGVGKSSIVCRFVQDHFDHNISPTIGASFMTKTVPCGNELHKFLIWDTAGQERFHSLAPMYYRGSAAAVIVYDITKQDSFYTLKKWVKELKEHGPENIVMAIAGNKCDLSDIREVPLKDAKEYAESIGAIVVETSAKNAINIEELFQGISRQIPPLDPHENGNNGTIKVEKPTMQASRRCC
UniProt Q9UL26: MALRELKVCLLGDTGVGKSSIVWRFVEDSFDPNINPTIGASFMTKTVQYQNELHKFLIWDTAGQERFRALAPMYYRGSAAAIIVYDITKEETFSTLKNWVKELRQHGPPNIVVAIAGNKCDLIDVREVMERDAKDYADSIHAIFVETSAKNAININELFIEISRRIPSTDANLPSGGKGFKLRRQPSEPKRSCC

Key:
Test in all cases: pull-down; GST-effector fusion protein on glutathione-Sepharose beads incubated with clarified lysate of transfected cells for 1 h at 4 °C; lysis buffer 20 mM Hepes pH 7.4, 100 mM NaCl, 5 mM MgCl2, 0.1% NP40, 10% glycerol, 1 mM DTT; washed 3 times with PBS-T (1% Triton X-100); immunoblot with anti-Myc or anti-Rab antibody, bands quantified with LI-COR Odyssey; only the target purified
[1] = molecular target: T1, GST fusion protein of Rabenosyn-5 RBD-N (aa1-40) (UniProt Q9H1K0)
T1 sequence: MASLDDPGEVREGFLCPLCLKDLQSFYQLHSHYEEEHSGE

[2] = molecular target: GST fusion protein of EEA1 RBD-N (aa1-209) (UniProt Q15075)
[3] = molecular target: T2, GST fusion protein of Rabenosyn-5 RBD-C (aa728-784) (UniProt Q9H1K0)
T2 sequence: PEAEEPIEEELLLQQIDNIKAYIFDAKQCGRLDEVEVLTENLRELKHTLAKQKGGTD

Measured: binding

Rab31 (from UniProt Q13636)
binds: all assays above

Rab22 (from UniProt Q9UL26)
binds: all assays above

No constants are given. Whether binding was seen depends on the method and setting. In cells and extracts the contact can be indirect. Binding calls can cover weak binding; strength is not graded here. For part of these data: Sequences can lack the tags named with a protein.
